Results on 42 sequences are retold here after PMC7819943, “Rice protein-binding microarrays: a tool to detect cis-acting elements near promoter regions in rice”.

Chains of the proteins cited; added tags and fusions are not shown.
UniProt Q0JBA9, entry or part of it: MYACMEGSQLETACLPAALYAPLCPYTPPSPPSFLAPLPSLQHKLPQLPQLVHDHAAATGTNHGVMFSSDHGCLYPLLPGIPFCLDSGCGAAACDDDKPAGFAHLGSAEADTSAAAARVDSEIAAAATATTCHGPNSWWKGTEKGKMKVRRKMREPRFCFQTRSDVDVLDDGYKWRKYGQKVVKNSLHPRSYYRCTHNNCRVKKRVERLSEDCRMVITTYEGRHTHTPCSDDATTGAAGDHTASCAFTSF

This is one part of the list.

In this assay the target is OsWRKY34 (Oryza sativa, UniProt Q0JBA9 1-250). The experiment in a line: protein-binding microarray (RPBM); PBS, 2% BSA, 51.3 ng/ul salmon testes DNA, 50 uM zinc acetate, 200 nM TF, 25 C, 1 h; high values mean tight binding. The settings on record: protein: recombinant; tags: N-terminal polyhistidine and DsRed monomer fusion (pET32a); label: CyDye5-dUTP incorporated in the synthesized complementary strand; 3' TTTTT single-stranded linker to array surface; dsDNA, one strand shown. Put shortly:
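Binding signal is reported as fluorescence intensity per feature (arbitrary units) from an Axon 4000B scanner. Incubation used 200 nM of each Ni–NTA-purified, N-terminally polyhistidine- and DsRed-fused transcription factor from E. coli BL21-CodonPlus on a double-stranded custom Agilent array for 1 h at 25 °C, with 50 µM zinc acetate in the buffer, followed by washing.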
“TTCAAAGCTGCCTCTGTGTTAGCCCTTTGCTTAGCTACTACGGAGTCACCTAGTGCAG”: the binding signal was 8400 fluorescence intensity (a.u.).
Take “CTCAATCTGGACCATTCATCTTTGATACACGCGTTTCCTACGGAGTCACCTAGTGCAG”: the binding signal was 8960 fluorescence intensity (a.u.).
For “TATTCCGAGCCGCCCCATCCACCCTACCCTCTAAACAAACCGGAGTCACCTAGTGCAG” the value was 8720 fluorescence intensity (a.u.); for “ATACATCATATTCCATCTTCAACTTATCTTCATGTCATCACGGAGTCACCTAGTGCAG”, 10400 fluorescence intensity (a.u.); for “GTAGCATGTAAATATCATTACTTTTTGTTGTTGTGACATTCGGAGTCACCTAGTGCAG”, 8970 fluorescence intensity (a.u.).
“TTCACATTTCATTTAATTCTAGCAATTCATTTATTTCTTTCGGAGTCACCTAGTGCAG”: the binding signal was 10400 fluorescence intensity (a.u.).
Turning to “TTTTCGCCGTTCTTTCCGGTTATTTTGCCATCGCCTTTTTCGGAGTCACCTAGTGCAG”, the binding signal is 12600 fluorescence intensity (a.u.).
For “GCCCTGCTTCTCCTTCTCTGCCTCAACCTACCGCCGAGACCGGAGTCACCTAGTGCAG” the value was 13200 fluorescence intensity (a.u.); for “TTTGCAGCAGCCAGCCTCGGATCGTCGTCTCTCCACCTCTCGGAGTCACCTAGTGCAG”, 9720 fluorescence intensity (a.u.).
For “AGAGGGTTTTGCTGCCTTTGCGTTGCGGCGTGGAGGGAGACGGAGTCACCTAGTGCAG” the value was 8240 fluorescence intensity (a.u.).
Then “ATCCTTTCTTACACTTTCATAACTCGTGAAATGCCGAGTTCGGAGTCACCTAGTGCAG”, with 11200 fluorescence intensity (a.u.); and “ATCGTGAAGACGGGTGCGGTCTAGCTCTACTCCTTCGTTCCGGAGTCACCTAGTGCAG”, with 9800 fluorescence intensity (a.u.); and “ACGCACGACGCCTCTTCTCCTCTCGCCGTCTCGCGCAATCCGGAGTCACCTAGTGCAG”, with 10500 fluorescence intensity (a.u.).
Regarding “ATAGTTTAGTTGCTATTTGTGCAATTCTTTCCCTAATTATCGGAGTCACCTAGTGCAG”, the binding signal was 9740 fluorescence intensity (a.u.).
For “GGGACCTTTGACCTGCTTCCTACTTGTGTCGTCCTCGAGCCGGAGTCACCTAGTGCAG” the value was 8120 fluorescence intensity (a.u.).
For the sequence “CTATGTTTTCTGCCTTCCTATCTTTCATTCAATCCTGTGTCGGAGTCACCTAGTGCAG”, the binding signal was 8550 fluorescence intensity (a.u.).
For “TGACATTTCTGGATGGCTTTGACTCATTCATTACATTCACCGGAGTCACCTAGTGCAG” the value was 8780 fluorescence intensity (a.u.); for “AGATACGCTTACTTGCTTCGTAGTCTTATTCTTTTTTAAGCGGAGTCACCTAGTGCAG”, 10600 fluorescence intensity (a.u.); for “CCACCTTGTTTCTTTCTCTCGTTCTCCTCCTCTCCGTCACCGGAGTCACCTAGTGCAG”, 8780 fluorescence intensity (a.u.).
For “CTCAACGCTCACGTCGTATCACGTGCCATCCCGCGTCTCCCGGAGTCACCTAGTGCAG” the value was 10700 fluorescence intensity (a.u.).
For “AACTCAATCAAACACCACTGGTCTCATAACGCTGCTGTCACGGAGTCACCTAGTGCAG” the value was 11600 fluorescence intensity (a.u.).
As to “GGATAAGGGGAATTAATTAGGGTAAGTTAATAGGGTTCTACGGAGTCACCTAGTGCAG”, the binding signal is 10700 fluorescence intensity (a.u.).
Take “CCCGACCACTCCCACTATTTGCTGCTCCTCCGTTTCAAAACGGAGTCACCTAGTGCAG”: the binding signal was 9900 fluorescence intensity (a.u.).
With “ATAGTAGTGATGCCCTGACCCATAGGTCCTACACAATTTTCGGAGTCACCTAGTGCAG”, the binding signal is 10500 fluorescence intensity (a.u.).
For “TAGTTTCGCTTCACGGTGCATGGTTGATTCGCTGTCGTCTCGGAGTCACCTAGTGCAG” the value was 8390 fluorescence intensity (a.u.); for “TTTATCATTTGTTTTTTCTTCGGTACCTCGACTAATTACCCGGAGTCACCTAGTGCAG”, 8270 fluorescence intensity (a.u.).
Then “GTCGTTGTTGCAACCGCGAGCCTCGCTCGTCTCCTCTTCCCGGAGTCACCTAGTGCAG”, with 8320 fluorescence intensity (a.u.); and “ACCCCGGCCCTATCCCTATGTATGTACACGACGACGACGTCGGAGTCACCTAGTGCAG”, with 14900 fluorescence intensity (a.u.).
For the sequence “GGGTTACGGCTGCAAGCTTGTTCTCTCCAGATGGGGAGTTCGGAGTCACCTAGTGCAG”, the binding signal was 10400 fluorescence intensity (a.u.).
For “CAGGCAGGGCAGGGAAGGGCGTTGGTGGTTCATCTCCTCTCGGAGTCACCTAGTGCAG” the value was 9900 fluorescence intensity (a.u.); for “TATTTTTTCGCCTTTTCTGTTCGTGTGTTCGTGGTGGAGTCGGAGTCACCTAGTGCAG”, 8360 fluorescence intensity (a.u.); for “TTAAATTAATCTGGGTTTTTTTTTTCTCGTATTCTATTTTCGGAGTCACCTAGTGCAG”, 8270 fluorescence intensity (a.u.).
Take “AAGCGTGAGGGATGTTTAATTGGGCGTAACTGCTCCCGAACGGAGTCACCTAGTGCAG”: the binding signal was 8160 fluorescence intensity (a.u.).
For “TTTGGTTCCTTTGAGTTTTTGATCTGTTTCATCCAAAATCCGGAGTCACCTAGTGCAG” the value was 8100 fluorescence intensity (a.u.); for “CGTTGGATAATCTCTAGTACATGTATATACATTTGGCTCTCGGAGTCACCTAGTGCAG”, 8220 fluorescence intensity (a.u.); for “TAGTTGGTCTATCTCTATATAAGCTCACACAAATCTGATCCGGAGTCACCTAGTGCAG”, 9030 fluorescence intensity (a.u.).
For “TATATATATATATACCCCTGAGACTCAATACAACGTGTCCCGGAGTCACCTAGTGCAG” the value was 9910 fluorescence intensity (a.u.).
Then “AGTCACGTCACCTTTTCACGTGGGACCCACCTGGAAAACCCGGAGTCACCTAGTGCAG”, with 9820 fluorescence intensity (a.u.); and “GACACTTTAATTTCCTCATCCTTGTGGCATCATTTTTGCACGGAGTCACCTAGTGCAG”, with 12200 fluorescence intensity (a.u.); and “CGCGCCATCTCCATGTCATCGTCGTCGTCTGTGTCCCCTTCGGAGTCACCTAGTGCAG”, with 10700 fluorescence intensity (a.u.).
As to “TGGGTAAAACATGGGCACTCATTAGCCACCTCCATGCTTTCGGAGTCACCTAGTGCAG”, the binding signal was 8190 fluorescence intensity (a.u.).
For “ATTTAAGTATAAAATTTTGACTAGTCCTTACATGAAACGTCGGAGTCACCTAGTGCAG” the value was 9640 fluorescence intensity (a.u.).
